This is one part of the list.
Assay: DUSP6 inhibitors restoring Erk phosphorylation by chemical complementation, primary imaging in DUSP6-transfected HeLa (AID 609)
Conditions: HeLa MKP-3 transfected, phospho-Erk imaging KS statistic, at 10 µM, cells stimulated with TPA for 15 min
[1] = measured here: cell density z-score
[2] = measured here: nuclear c-Myc green intensity z-score
[3] = measured here: nuclear pErk red intensity z-score, stronger effect = higher value

Row | SMILES | z-score [1] | z-score [2] | z-score [3]
1 | Cc1ccc(OCC(=O)OC2CN3CCC2CC3)cc1 (centres undefined) | 0.823 | -0.68 | 1.41
2 | Cc1cccc(OCC(=O)OC2CN3CCC2CC3)c1 (centres undefined) | -0.952 | -1.07 | 0.998
3 | CCN(CC)CC(O)COC(=O)C(O)(c1ccccc1)C1CCCCC1 (centres undefined) | -0.467 | 0.555 | -0.742
